This is an account of results in the supplement of paper PMC9254222.

The subject of the experiment is HEK293T (UBE3A T485A transfected, BAR Wnt reporter). In words: Renilla luciferase signal (cell health) relative to plate median (fold (linear ratio)); higher = higher Renilla signal. To be noted: 24 h. Put shortly: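 Chemicals were robotically dosed at 0.01–100 uM for 24 h onto HEK293T cells, starting four hours after transfection with a BAR firefly luciferase Wnt reporter, TK-Renilla and an expression plasmid. The cells had been plated at 4500 cells/well in DMEM with 10% FBS at 37°C and 5% CO2. Following a Dual-Glo luciferase readout, the firefly/Renilla ratio served as the Wnt activity measure and raw Renilla as the cell health measure, both median-centred on each plate. Each value is the mean of four biological replicates.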

Whole data set: some 1,100 compounds, median “Renilla luciferase signal (cell health) relative to plate median” near 0.97, cut for the highest 2% near 1.6. The entries are a selection whose mix differs from that of the whole data set.

On to `CC(C)(C)c1cccc(C(C)(C)C)c1O` [2,6-Di-tert-butylphenol], for which the Renilla luciferase signal worked out at 0.439 (concentration: 0.1 uM), 0.642 (concentration: 1 uM), 0.669 (concentration: 10 uM) and 0.956 (concentration: 100 uM).

For the compound `CCCCCCCCCCO` [1-Decanol], the Renilla luciferase signal runs as follows: (concentration: 0.1 uM) 1.01; (concentration: 1 uM) 0.98; (concentration: 10 uM) 0.966; (concentration: 100 uM) 1.2.

Turning to `Cc1ccc(-c2cc(C(F)(F)F)nn2-c2ccc(S(N)(=O)=O)cc2)cc1` [Celecoxib], the Renilla luciferase signal (concentration: 0.1 uM) amounted to 0.956, the Renilla luciferase signal (concentration: 1 uM) is 0.884, the Renilla luciferase signal (concentration: 10 uM) turned out to be 0.991 and the Renilla luciferase signal (concentration: 100 uM) worked out at 1.19.

On to `Nc1ccc(C(=O)O)cc1` [4-Aminobenzoic acid], for which the Renilla luciferase signal was 0.873 (concentration: 0.1 uM), 1.02 (concentration: 1 uM), 1.12 (concentration: 10 uM) and 1.07 (concentration: 100 uM).

With `O=C(O)c1cccc(N(Cc2cccnc2)c2ccc(OC(F)F)c(OC(F)F)c2)c1`, the Renilla luciferase signal is, setting by setting: (concentration: 0.1 uM) 1.15; (concentration: 1 uM) 1.14; (concentration: 10 uM) 1.24; (concentration: 100 uM) 0.322.

For the compound `CCCCCCOC(=O)C1(O)CC2OC1(C)n1c3ccccc3c3c4c(c5c6ccccc6n2c5c31)C(=O)NC4` (stereo not drawn), the Renilla luciferase signal (concentration: 0.01 uM) was found to be 0.965; the Renilla luciferase signal (concentration: 0.1 uM) is 0.841; the Renilla luciferase signal (concentration: 1 uM) is 0.894; the Renilla luciferase signal (concentration: 10 uM) is 0.72; the Renilla luciferase signal (concentration: 100 uM) worked out at 0.153.

For `C1CCC(SSC2CCCCC2)CC1` [Dicyclohexyl disulfide], the Renilla luciferase signal runs as follows: (concentration: 0.1 uM) 0.668; (concentration: 1 uM) 0.783; (concentration: 10 uM) 0.685; (concentration: 100 uM) 0.73.

On to `Oc1cccc(O)c1` [Resorcinol], for which the Renilla luciferase signal reads like this: (concentration: 0.1 uM) 1.05; (concentration: 1 uM) 0.981; (concentration: 10 uM) 1.03; (concentration: 100 uM) 1.22.

Consider `CCC(C)(C)C1CCC(O)CC1` (stereo not drawn) [4-(2-Methylbutan-2-yl)cyclohexanol], for which the Renilla luciferase signal by setting is: (concentration: 0.1 uM) 0.723; (concentration: 1 uM) 0.82; (concentration: 10 uM) 0.757; (concentration: 100 uM) 1.11.

On to `CC1=CC(=O)/C(=C(/C)[O-])C(=O)O1.[Na+]` [Sodium dehydroacetate], for which the Renilla luciferase signal by setting is: (concentration: 0.1 uM) 0.915; (concentration: 1 uM) 0.975; (concentration: 10 uM) 1.03; (concentration: 100 uM) 1.23.

`CCCOC(=O)c1ccc(O)cc1` [Propylparaben]: the Renilla luciferase signal (concentration: 0.1 uM) amounted to 0.868, the Renilla luciferase signal (concentration: 1 uM) was 0.955, the Renilla luciferase signal (concentration: 10 uM) is 0.874 and the Renilla luciferase signal (concentration: 100 uM) amounted to 0.536.

In the case of `O=C1CCCCCN1` [Caprolactam], the Renilla luciferase signal is, setting by setting: (concentration: 0.1 uM) 0.921; (concentration: 1 uM) 1.04; (concentration: 10 uM) 1.06; (concentration: 100 uM) 1.25.

For `O=C1O[C@H]([C@H](O)CO)C([O-])=C1O.[Na+]` [Sodium erythorbate (1:1)], the Renilla luciferase signal turned out to be 0.886 (concentration: 0.1 uM), 0.99 (concentration: 1 uM), 0.853 (concentration: 10 uM) and 1.22 (concentration: 100 uM).

In the case of `c1ccc2c(c1)ccc1ccccc12` [Phenanthrene], the Renilla luciferase signal (concentration: 0.1 uM) turned out to be 0.817, the Renilla luciferase signal (concentration: 1 uM) was found to be 0.792, the Renilla luciferase signal (concentration: 10 uM) was 0.858 and the Renilla luciferase signal (concentration: 100 uM) is 0.898.

In the case of `N#C[C@@H]1CC(F)(F)CN1C(=O)CNC1CC2CCC(C1)N2c1ncccn1` (stereo partly drawn), the Renilla luciferase signal is 0.805 (concentration: 0.1 uM), 1.04 (concentration: 1 uM), 0.919 (concentration: 10 uM) and 1.25 (concentration: 100 uM).

In the case of `CCCC(=O)O` [Butanoic acid], the Renilla luciferase signal (concentration: 100 uM) was 1.73.

In the case of `CCCCCCCCCCCCCCCCCC(=O)O` [Octadecanoic acid], the Renilla luciferase signal by setting is: (concentration: 0.1 uM) 0.913; (concentration: 1 uM) 0.958; (concentration: 10 uM) 0.923; (concentration: 100 uM) 1.4.

Regarding `Cc1cn([C@H]2C[C@H](N=[N+]=[N-])[C@@H](CO)O2)c(=O)[nH]c1=O` [3'-Azido-3'-deoxythymidine], the Renilla luciferase signal reads like this: (concentration: 0.1 uM) 0.974; (concentration: 1 uM) 0.837; (concentration: 10 uM) 0.864; (concentration: 100 uM) 1.35.

Turning to `CC(C)CCO` [Isopentyl alcohol], the Renilla luciferase signal is, setting by setting: (concentration: 0.1 uM) 0.921; (concentration: 1 uM) 0.885; (concentration: 10 uM) 0.989; (concentration: 100 uM) 1.29.

On to `CCCCc1oc2ccccc2c1C(=O)c1cc(I)c(OCCN(CC)CC)c(I)c1.Cl` [Amiodarone hydrochloride], for which the Renilla luciferase signal was 0.889 (concentration: 0.1 uM), 0.939 (concentration: 1 uM), 1.04 (concentration: 10 uM) and 1.29 (concentration: 100 uM).

`Fc1ccccc1[C@@H](F)CO[C@H]1CC[C@H](Nc2[nH]cnc3nncc2-3)CC1`: the Renilla luciferase signal was determined as 1.06 (concentration: 0.1 uM), 1.09 (concentration: 1 uM), 0.996 (concentration: 10 uM) and 0.148 (concentration: 100 uM).

Turning to `Cc1ccc(Cl)cc1` [4-Chlorotoluene], the Renilla luciferase signal (concentration: 0.1 uM) amounted to 0.968, the Renilla luciferase signal (concentration: 1 uM) was 1.19, the Renilla luciferase signal (concentration: 10 uM) worked out at 1.06 and the Renilla luciferase signal (concentration: 100 uM) stood at 1.45.

Regarding `O=C([N-]S(=O)(=O)/C=C/c1ccccc1)c1ccc(F)cc1Cl.[Na+]`, the Renilla luciferase signal runs as follows: (concentration: 0.1 uM) 0.836; (concentration: 1 uM) 0.721; (concentration: 10 uM) 0.459; (concentration: 100 uM) 0.255.

As for `CC(C)CCCCCCOC(=O)CCCCC(=O)OCCCCCCC(C)C` [Hexanedioic acid, diisononyl ester], the Renilla luciferase signal by setting is: (concentration: 0.1 uM) 1.07; (concentration: 1 uM) 1.01; (concentration: 10 uM) 1.05; (concentration: 100 uM) 1.19.

`C=C(C)C(=O)OCCC(F)(F)C(F)(F)C(F)(F)C(F)(F)C(F)(F)C(F)(F)F` [Tridecafluorohexylethyl methacrylate]: the Renilla luciferase signal by setting is: (concentration: 0.1 uM) 1.04; (concentration: 1 uM) 0.84; (concentration: 10 uM) 1.04; (concentration: 100 uM) 1.25.

Regarding `CC[C@H](NC(=O)c1cc(F)ccc1[N-]S(=O)(=O)c1cccc2cccnc12)c1ccccc1.[Na+]`, the Renilla luciferase signal was 0.854 (concentration: 0.1 uM), 0.88 (concentration: 1 uM), 0.969 (concentration: 10 uM) and 0.167 (concentration: 100 uM).

With `c1ccc(Nc2ccccc2)cc1` [Diphenylamine], the Renilla luciferase signal reads like this: (concentration: 0.01 uM) 1.09; (concentration: 0.1 uM) 1.05; (concentration: 1 uM) 1.06; (concentration: 10 uM) 1.09; (concentration: 100 uM) 1.82.

For `C[C@]12CC[C@@H]3c4ccc(O)cc4CC[C@H]3[C@@H]1CC[C@H]2O` [17alpha-Estradiol], the Renilla luciferase signal came to 0.89 (concentration: 0.1 uM), 0.998 (concentration: 1 uM), 0.886 (concentration: 10 uM) and 0.0462 (concentration: 100 uM).

Take `c1ccc2cc3c(ccc4ccccc43)cc2c1` [Benz(a)anthracene]: the Renilla luciferase signal (concentration: 0.1 uM) is 1.01, the Renilla luciferase signal (concentration: 1 uM) was determined as 0.965, the Renilla luciferase signal (concentration: 10 uM) amounted to 1.06 and the Renilla luciferase signal (concentration: 100 uM) came out at 1.03.

On to `NS(=O)(=O)c1cc2c(cc1Cl)NCNS2(=O)=O` [Hydrochlorothiazide], for which the Renilla luciferase signal (concentration: 0.1 uM) was 0.839, the Renilla luciferase signal (concentration: 1 uM) amounted to 0.893, the Renilla luciferase signal (concentration: 10 uM) amounted to 1.03 and the Renilla luciferase signal (concentration: 100 uM) was 1.13.

Turning to `c1ccc2c(c1)Cc1ccccc1-2` [Fluorene], the Renilla luciferase signal is, setting by setting: (concentration: 0.1 uM) 1.05; (concentration: 1 uM) 1.01; (concentration: 10 uM) 1.08; (concentration: 100 uM) 1.24.
